## Results of single-concentration screens

Chains of the proteins cited; added tags and fusions are not shown. Residues count along the entry.
UniProt Q4DA54, 1-478: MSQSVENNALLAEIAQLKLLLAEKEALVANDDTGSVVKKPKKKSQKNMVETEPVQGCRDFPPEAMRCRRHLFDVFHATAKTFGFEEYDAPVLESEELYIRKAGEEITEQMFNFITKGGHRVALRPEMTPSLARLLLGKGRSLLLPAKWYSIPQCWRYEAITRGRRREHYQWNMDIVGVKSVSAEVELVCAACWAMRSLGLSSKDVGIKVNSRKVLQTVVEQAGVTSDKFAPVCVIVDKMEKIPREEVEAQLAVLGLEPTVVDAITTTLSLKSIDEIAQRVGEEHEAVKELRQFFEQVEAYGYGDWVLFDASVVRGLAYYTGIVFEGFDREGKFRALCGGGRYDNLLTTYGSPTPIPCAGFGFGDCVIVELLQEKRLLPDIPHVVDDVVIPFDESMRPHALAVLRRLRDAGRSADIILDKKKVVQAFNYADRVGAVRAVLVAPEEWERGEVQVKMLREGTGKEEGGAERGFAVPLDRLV
UniProt A4I591, 1-473: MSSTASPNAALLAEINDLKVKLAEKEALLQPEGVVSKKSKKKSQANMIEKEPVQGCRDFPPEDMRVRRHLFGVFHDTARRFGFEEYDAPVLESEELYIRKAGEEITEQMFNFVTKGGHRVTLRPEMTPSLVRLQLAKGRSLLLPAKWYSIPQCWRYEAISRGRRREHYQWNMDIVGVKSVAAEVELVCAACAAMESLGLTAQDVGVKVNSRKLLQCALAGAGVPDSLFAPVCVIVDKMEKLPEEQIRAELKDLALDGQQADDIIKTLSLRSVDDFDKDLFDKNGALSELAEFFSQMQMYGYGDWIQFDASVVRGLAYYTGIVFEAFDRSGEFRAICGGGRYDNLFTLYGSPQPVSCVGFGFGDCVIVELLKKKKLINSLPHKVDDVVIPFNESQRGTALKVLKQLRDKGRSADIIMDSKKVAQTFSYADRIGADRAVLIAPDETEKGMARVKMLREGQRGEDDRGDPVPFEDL

From ChEMBL document CHEMBL3988442, “University of Dundee, Small-Polar-MMV Screening Library” (2021).

Results are given as percent effect.
The record does not define 0% and 100%; most values in the screen are far below 50% and negative numbers occur (in some assays of this library far below -100).
This is an unselected part of the compounds tested.

TcHisRS: 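Enzyme assay of histidyl-tRNA synthetase; the read-out is not stated. Target: Histidine-tRNA ligase, Trypanosoma cruzi CL Brener (UniProt Q4DA54). Tested at 30 µM. Higher reads as stronger inhibition (inferred: compounds with an IC50 in retests scored well above the rest). Of about 69,000 compounds tested this way, about 31 (0.045%) reached 50% or more in at least one test.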
LiHisRS: 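Histidine-tRNA ligase, Leishmania infantum (UniProt A4I591). Enzyme assay of histidyl-tRNA synthetase; the read-out is not stated. Compounds at 30 µM. Direction is inferred from retests: higher values go with stronger inhibition. The assay is labelled LdHisRS but filed under L. infantum. Of about 69,000 compounds tested this way, about 410 (0.6%) reached 50% or more in at least one test.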

With COCCCNC(=O)NCc1ccc(C)cc1 the screen gave TcHisRS: 1.88%; LiHisRS: 16.22%. O=C(C1CCCO1)N1CC[C@@H]2CN(Cc3ccccc3)S(=O)(=O)[C@@H]2CC1 (stereo partly drawn) gave TcHisRS: 6.329%; LiHisRS: 20.69%. With CCn1c(N)nc2cc(C(=O)NCCc3ccncc3)cnc21 the screen gave TcHisRS: 2.439%; LiHisRS: 13.25%. For O=C(c1scc2c1OCCO2)N1CCOC(Cc2ccc(F)cc2)C1 (stereo not drawn) the result was TcHisRS: 7.071%; LiHisRS: 13.11%. CCCc1noc(CCC(=O)NC(C)c2nnc3n2CCCCC3)n1 (stereo not drawn) read TcHisRS: 1.695%; LiHisRS: 9.434%. Result for O=C(O)C1CCCN1c1nc(C2CC2)cc(C(F)(F)F)n1 (stereo not drawn) was TcHisRS: 1.327%; LiHisRS: -0.885%. C[C@@H]1CN(Cc2nc(C(N)=O)no2)CC[C@@]1(O)C1CC1 gave TcHisRS: -0.6061%; LiHisRS: 6.667%. Result for CN(C)CC(=O)N1CC2(CCN(C(=O)Nc3ccccc3)C2)C1 was TcHisRS: 8.738%; LiHisRS: 19.23%.

For c1ccc(-c2noc(CN3CCCC(Cn4cncn4)C3)n2)nc1 (stereo not drawn) the result was TcHisRS: 5.143%; LiHisRS: 11.86%. Result for O=C(Cc1ccc2c(c1)CCCC2)N[C@@H]1CC[C@@H](n2ccnc2)[C@@H]1O was TcHisRS: 7.778%; LiHisRS: 18.56%. Result for Cc1cc(CN2CCCC2c2noc(C)n2)no1 (stereo not drawn) was TcHisRS: 1.887%; LiHisRS: -1.351%. CC(C)N1CCCC(CN(C)c2ccc(Cn3ccnc3)cn2)C1 (stereo not drawn) gave TcHisRS: 4.348%; LiHisRS: 22.37%. C[C@@H]1CN2C[C@H](O)CC2CN1Cc1ccc2nccnc2c1 (stereo partly drawn) read TcHisRS: 3.846%; LiHisRS: -4.225%. For Cc1cc(C(=O)NCC2SCCc3ccccc32)no1 (stereo not drawn) the result was TcHisRS: -1.604%; LiHisRS: 3.665%. With CN1CCN(c2ccc3ccc(C(=O)N4CCCO4)cn23)CC1 the screen gave TcHisRS: 8.824%; LiHisRS: 10.92%. For CCN1CCn2c(C)cnc2C12CCN(C(=O)NCC(C)C)CC2 the result was TcHisRS: -3.365%; LiHisRS: -6.422%.

Result for CCOCc1nc2c(c(N3CCN4CCCC4C3)n1)CCNCC2 (stereo not drawn) was TcHisRS: 10.97%; LiHisRS: 9.091%. Cc1nc(N2CCOCC2)nc2c1CN(CC(=O)N(C)C)CC2 read TcHisRS: 7.143%; LiHisRS: 17%. For Cn1nc2c(cc1=O)CN(Cc1ccc(-n3cccn3)cc1)CC2 the result was TcHisRS: 12.26%; LiHisRS: 33.33%. Cc1nnc(Nc2cccc(C3CCN(Cc4ncc[nH]4)CC3)n2)s1 read TcHisRS: 2.281%; LiHisRS: 0.6897%. For Nc1ncccc1CN1C[C@@H]2CC[C@H](C1)N(CC1CC1)C2=O the result was TcHisRS: 4.523%; LiHisRS: 12%. COCCn1c(-c2cccc(OC)c2)cnc1NC(=O)NC(C)C gave TcHisRS: 4.878%; LiHisRS: 23.68%. For CN1CCC(N(C)C[C@H]2CC[C@@H](Cc3cccc(O)c3)O2)CC1 the result was TcHisRS: 0%; LiHisRS: 31.34%. CCN1CC(COC(=O)c2cccc(Br)c2)CC1=O (stereo not drawn) gave TcHisRS: 13.81%; LiHisRS: 7.292%.

With Cc1ccccc1SC1CCN(C(=O)CCCS(N)(=O)=O)CC1 the screen gave TcHisRS: -15.84%; LiHisRS: 10.87%.

Some entries from above, unchanged:

With c1ccc(-c2noc(CN3CCCC(Cn4cncn4)C3)n2)nc1 (stereo not drawn) the screen gave TcHisRS: 5.143%; LiHisRS: 11.86%.
With CN1CCN(c2ccc3ccc(C(=O)N4CCCO4)cn23)CC1 the screen gave TcHisRS: 8.824%; LiHisRS: 10.92%.